Compound in the assay: Nc1ncnc2c1ncn2[C@@H]1O[C@H](COP(=O)(O)OP(=O)(O)NP(=O)(O)O)[C@@H](O)[C@H]1O [adenylyl imidodiphosphate]
Briefly: NP40-soluble protein abundance relative to vehicle (solubility fold change) (ratio); higher = more soluble protein in presence of AMP-PNP. The procedure, abridged: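 Across three independent experiments, values are fold changes against the detergent-processed vehicle for each replicate, based on vsn-normalised intensities. The samples were Jurkat crude lysate treated with eight concentrations (0.1 to 10 mM) for 10 min at room temperature and then 3 min at 37 °C. Lysate was solubilised with 0.8% NP40 and benzonase, ultracentrifuged, and the supernatant analysed by TMT-labelled LC-MS/MS.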

Protein sequences, listed by entry. Tags and fused reporters are not part of them. Lines headed by an entry give the natural chain unless they say otherwise; changes in a name come on top.
UniProt Q9P219: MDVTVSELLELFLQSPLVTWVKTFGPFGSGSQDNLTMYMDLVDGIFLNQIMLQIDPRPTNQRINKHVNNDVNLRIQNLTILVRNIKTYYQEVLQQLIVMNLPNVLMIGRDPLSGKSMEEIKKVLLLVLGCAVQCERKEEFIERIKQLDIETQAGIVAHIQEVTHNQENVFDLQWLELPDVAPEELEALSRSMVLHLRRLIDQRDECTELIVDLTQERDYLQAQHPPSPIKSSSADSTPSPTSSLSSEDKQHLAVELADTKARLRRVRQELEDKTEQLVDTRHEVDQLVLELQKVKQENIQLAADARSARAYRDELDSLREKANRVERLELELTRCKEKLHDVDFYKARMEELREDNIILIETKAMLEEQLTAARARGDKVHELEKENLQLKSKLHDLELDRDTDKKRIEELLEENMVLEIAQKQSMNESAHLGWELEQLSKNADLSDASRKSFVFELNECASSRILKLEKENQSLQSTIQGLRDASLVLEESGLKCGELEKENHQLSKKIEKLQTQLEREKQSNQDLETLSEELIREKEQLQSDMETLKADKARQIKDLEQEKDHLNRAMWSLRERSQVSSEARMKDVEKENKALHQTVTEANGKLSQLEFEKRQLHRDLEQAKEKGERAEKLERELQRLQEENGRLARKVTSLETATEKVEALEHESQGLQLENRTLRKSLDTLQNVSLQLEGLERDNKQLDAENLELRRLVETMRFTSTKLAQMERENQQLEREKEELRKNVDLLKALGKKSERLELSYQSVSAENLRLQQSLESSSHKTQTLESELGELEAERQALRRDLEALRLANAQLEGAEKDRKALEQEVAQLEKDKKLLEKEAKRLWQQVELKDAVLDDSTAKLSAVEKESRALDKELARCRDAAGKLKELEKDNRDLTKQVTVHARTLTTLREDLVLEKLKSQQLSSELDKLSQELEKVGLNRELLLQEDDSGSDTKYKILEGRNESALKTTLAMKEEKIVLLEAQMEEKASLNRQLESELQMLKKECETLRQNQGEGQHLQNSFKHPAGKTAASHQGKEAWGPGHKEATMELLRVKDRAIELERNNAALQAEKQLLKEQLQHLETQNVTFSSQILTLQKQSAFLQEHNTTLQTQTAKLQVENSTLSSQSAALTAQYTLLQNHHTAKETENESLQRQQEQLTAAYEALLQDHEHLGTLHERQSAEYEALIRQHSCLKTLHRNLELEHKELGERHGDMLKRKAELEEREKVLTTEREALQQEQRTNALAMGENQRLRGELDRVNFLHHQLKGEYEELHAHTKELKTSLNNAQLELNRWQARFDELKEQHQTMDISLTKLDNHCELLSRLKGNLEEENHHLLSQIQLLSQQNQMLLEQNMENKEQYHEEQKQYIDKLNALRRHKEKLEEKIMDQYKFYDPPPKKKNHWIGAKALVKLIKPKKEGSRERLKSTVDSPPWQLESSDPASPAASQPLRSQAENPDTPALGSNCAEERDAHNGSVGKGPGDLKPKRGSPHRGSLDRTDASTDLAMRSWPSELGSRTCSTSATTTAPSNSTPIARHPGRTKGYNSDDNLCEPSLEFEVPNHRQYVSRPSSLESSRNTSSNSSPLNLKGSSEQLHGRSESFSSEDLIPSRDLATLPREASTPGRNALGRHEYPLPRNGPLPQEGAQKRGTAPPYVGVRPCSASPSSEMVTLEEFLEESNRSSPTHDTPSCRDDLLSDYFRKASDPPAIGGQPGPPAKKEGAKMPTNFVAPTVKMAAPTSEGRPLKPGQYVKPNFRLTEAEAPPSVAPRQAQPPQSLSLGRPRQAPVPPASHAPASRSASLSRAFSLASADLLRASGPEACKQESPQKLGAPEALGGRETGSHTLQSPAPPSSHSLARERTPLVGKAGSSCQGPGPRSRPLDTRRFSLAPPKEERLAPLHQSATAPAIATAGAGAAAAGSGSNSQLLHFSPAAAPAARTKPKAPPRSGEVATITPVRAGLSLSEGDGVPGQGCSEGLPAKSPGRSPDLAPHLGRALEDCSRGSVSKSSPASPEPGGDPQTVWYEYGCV
UniProt Q9NWY4: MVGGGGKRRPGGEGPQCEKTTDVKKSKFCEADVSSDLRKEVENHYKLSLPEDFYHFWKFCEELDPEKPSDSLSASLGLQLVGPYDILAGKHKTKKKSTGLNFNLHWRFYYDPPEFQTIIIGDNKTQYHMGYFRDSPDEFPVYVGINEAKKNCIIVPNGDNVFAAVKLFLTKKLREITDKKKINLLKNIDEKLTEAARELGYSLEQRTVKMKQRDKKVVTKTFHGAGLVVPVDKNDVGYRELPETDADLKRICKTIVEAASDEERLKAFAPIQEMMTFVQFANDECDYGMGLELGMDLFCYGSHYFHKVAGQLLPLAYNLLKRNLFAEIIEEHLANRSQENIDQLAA
UniProt Q9UBQ7: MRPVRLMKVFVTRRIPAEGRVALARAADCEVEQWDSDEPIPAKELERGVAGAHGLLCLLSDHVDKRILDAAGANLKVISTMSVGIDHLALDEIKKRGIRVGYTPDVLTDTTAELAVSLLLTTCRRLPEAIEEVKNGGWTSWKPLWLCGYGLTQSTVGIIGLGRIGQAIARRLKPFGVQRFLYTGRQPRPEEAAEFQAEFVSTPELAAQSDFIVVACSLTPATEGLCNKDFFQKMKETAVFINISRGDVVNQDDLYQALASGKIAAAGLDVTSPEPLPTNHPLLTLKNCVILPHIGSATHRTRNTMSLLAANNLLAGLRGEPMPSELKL
UniProt Q9NZL4: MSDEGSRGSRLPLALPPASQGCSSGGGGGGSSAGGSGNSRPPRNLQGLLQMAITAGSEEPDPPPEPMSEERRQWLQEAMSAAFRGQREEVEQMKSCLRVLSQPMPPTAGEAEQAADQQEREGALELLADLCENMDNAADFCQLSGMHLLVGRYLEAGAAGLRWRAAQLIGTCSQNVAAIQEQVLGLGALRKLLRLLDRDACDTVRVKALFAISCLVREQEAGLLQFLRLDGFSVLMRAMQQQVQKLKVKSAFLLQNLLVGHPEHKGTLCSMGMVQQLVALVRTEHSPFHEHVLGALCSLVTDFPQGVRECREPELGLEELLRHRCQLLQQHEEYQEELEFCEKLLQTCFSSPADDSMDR
UniProt Q9P2J5: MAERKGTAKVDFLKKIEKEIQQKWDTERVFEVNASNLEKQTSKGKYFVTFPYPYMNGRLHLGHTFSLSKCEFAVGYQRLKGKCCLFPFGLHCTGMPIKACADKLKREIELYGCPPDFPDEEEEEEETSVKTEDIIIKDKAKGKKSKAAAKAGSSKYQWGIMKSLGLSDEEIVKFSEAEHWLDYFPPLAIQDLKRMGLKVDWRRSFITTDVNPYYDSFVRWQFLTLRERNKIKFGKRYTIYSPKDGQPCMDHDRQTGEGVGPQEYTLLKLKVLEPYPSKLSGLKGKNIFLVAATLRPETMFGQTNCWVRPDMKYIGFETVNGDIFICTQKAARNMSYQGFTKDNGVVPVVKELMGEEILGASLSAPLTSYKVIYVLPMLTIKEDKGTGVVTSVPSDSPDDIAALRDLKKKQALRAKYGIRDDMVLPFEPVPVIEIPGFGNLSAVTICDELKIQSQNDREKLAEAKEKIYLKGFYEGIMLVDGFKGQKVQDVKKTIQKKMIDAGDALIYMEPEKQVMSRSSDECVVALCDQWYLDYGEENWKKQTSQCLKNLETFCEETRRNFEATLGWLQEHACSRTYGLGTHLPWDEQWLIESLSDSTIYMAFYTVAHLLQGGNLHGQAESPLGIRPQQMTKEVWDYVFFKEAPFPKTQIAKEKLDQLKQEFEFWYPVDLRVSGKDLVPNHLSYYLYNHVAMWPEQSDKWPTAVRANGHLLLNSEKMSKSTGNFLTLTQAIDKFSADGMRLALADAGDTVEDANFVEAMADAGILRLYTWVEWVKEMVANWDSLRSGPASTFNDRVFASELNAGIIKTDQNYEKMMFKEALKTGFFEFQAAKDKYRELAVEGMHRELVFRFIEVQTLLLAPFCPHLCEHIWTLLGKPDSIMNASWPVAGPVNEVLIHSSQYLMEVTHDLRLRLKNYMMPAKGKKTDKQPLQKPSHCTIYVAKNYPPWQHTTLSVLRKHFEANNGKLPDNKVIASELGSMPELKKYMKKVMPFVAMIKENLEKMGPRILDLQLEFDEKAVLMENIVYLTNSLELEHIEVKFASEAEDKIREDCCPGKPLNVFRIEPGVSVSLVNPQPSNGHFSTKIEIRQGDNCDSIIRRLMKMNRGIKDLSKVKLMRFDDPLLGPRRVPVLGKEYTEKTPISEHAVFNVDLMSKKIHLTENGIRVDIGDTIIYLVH
UniProt Q9P258, whole entry: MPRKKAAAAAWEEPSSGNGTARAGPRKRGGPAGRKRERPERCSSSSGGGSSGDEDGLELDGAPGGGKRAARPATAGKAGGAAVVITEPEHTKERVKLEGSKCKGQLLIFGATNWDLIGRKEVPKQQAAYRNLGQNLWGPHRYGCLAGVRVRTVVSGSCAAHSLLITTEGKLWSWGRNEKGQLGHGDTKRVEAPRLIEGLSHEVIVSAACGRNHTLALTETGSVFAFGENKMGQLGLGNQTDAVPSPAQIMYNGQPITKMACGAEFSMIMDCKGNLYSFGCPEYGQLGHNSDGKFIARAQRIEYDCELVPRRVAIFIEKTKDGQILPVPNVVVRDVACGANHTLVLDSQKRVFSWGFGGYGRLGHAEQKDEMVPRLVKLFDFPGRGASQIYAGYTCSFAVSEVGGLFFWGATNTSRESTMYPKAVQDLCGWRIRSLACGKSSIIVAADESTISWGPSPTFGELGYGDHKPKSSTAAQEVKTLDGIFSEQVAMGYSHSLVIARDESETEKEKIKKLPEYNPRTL
UniProt Q9NQT5, whole entry: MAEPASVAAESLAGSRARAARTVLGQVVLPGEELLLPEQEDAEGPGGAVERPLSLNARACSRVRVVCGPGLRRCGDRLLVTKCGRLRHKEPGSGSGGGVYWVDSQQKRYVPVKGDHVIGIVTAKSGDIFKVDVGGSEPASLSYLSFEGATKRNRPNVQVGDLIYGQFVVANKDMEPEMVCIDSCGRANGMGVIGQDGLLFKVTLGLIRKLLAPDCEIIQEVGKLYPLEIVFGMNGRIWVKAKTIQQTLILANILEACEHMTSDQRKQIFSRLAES
UniProt Q9NV88, whole entry: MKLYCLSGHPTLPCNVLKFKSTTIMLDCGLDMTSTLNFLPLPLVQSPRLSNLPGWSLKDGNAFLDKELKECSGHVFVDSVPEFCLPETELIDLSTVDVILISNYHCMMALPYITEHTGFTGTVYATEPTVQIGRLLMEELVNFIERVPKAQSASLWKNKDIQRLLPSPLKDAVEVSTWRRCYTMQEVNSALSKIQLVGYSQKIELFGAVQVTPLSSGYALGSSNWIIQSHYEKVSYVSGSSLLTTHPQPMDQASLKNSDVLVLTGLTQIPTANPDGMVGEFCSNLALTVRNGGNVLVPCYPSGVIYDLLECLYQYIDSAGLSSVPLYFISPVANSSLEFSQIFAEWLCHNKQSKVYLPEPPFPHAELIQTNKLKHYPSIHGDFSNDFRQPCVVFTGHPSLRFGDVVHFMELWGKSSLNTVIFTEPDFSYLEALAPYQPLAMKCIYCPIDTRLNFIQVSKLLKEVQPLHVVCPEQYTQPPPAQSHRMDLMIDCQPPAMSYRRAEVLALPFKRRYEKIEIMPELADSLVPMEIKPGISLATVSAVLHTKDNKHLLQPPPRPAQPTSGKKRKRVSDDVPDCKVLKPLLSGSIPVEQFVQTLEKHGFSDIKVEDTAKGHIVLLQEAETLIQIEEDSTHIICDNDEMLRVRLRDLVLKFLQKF
UniProt Q9NRF9: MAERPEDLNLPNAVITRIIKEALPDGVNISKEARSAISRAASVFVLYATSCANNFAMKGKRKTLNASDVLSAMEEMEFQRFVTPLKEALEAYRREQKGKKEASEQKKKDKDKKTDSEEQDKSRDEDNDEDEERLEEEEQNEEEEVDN
UniProt Q9NVM9, whole entry: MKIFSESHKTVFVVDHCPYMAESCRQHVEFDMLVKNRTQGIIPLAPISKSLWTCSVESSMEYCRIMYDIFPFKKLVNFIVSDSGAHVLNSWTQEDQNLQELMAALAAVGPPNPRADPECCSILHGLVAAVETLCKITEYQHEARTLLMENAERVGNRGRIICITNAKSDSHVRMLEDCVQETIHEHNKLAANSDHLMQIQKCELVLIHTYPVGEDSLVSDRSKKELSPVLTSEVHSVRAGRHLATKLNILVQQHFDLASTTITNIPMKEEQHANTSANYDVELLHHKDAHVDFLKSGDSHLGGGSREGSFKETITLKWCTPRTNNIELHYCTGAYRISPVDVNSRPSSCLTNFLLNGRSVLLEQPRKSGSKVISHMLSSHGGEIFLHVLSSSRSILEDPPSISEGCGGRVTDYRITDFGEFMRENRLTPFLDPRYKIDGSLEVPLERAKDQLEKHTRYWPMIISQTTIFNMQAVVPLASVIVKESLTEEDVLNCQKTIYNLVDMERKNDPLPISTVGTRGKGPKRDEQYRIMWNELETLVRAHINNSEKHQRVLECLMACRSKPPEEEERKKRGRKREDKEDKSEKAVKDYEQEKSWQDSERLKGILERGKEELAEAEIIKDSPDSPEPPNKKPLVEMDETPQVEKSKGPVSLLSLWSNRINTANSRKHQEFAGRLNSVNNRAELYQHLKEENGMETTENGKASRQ

± gives the standard deviation of the averaged measurements. Only a part is listed here, and it is no random draw.

Here are results for 15 targets from the supplement of paper PMC6411743.

In the case of CCDC88C (UniProt Q9P219), the NP40-soluble protein abundance is, setting by setting: (concentration: 1mM) 0.974 ± 0.012; (concentration: 2mM) 1.02 ± 0.02; (concentration: 4mM) 1.01 ± 0.079; (concentration: 6mM) 0.971 ± 0.11; (concentration: 8mM) 0.88 ± 0.016; (concentration: 10mM) 0.897 ± 0.055.
Regarding UniProt Q9NR28 and related entries, the NP40-soluble protein abundance (concentration: 1mM) was determined as 1.07 ± 0.032; the NP40-soluble protein abundance (concentration: 2mM) is 1.1 ± 0.11; the NP40-soluble protein abundance (concentration: 4mM) amounted to 1.07 ± 0.024; the NP40-soluble protein abundance (concentration: 6mM) was determined as 0.985 ± 0.046; the NP40-soluble protein abundance (concentration: 8mM) is 1.04 ± 0.031; the NP40-soluble protein abundance (concentration: 10mM) turned out to be 1.01 ± 0.046.
As for UniProt Q9NWY4, the NP40-soluble protein abundance reads like this: (concentration: 1mM) 1.05 ± 0.021; (concentration: 2mM) 1.06 ± 0.04; (concentration: 4mM) 1.06 ± 0.041; (concentration: 6mM) 0.998 ± 0.032; (concentration: 8mM) 1.03 ± 0.046; (concentration: 10mM) 1.04 ± 0.06.
Turning to GRHPR (UniProt Q9UBQ7), the NP40-soluble protein abundance is, setting by setting: (concentration: 1mM) 0.992 ± 0.048; (concentration: 2mM) 0.927 ± 0.048; (concentration: 4mM) 0.987 ± 0.011; (concentration: 6mM) 1 ± 0.086; (concentration: 8mM) 1.01 ± 0.056; (concentration: 10mM) 0.974 ± 0.034.
Regarding COMMD9 (UniProt Q9P000), the NP40-soluble protein abundance is 1.026 ± 0.0055 (concentration: 1mM); 1.02 ± 0.021 (concentration: 2mM); 1.018 ± 0.0086 (concentration: 4mM); 0.982 ± 0.02 (concentration: 6mM); 0.974 ± 0.015 (concentration: 8mM); 0.989 ± 0.0045 (concentration: 10mM).
Take UniProt Q9UBK8 and related entries: the NP40-soluble protein abundance stood at 0.928 ± 0.02 (concentration: 1mM); 0.881 ± 0.038 (concentration: 2mM); 0.916 ± 0.041 (concentration: 4mM); 0.971 ± 0.031 (concentration: 6mM); 0.94 ± 0.051 (concentration: 8mM); 0.964 ± 0.049 (concentration: 10mM).
With UniProt Q9NZL4 and related entries, the NP40-soluble protein abundance runs as follows: (concentration: 1mM) 0.963 ± 0.018; (concentration: 2mM) 0.953 ± 0.02; (concentration: 4mM) 0.979 ± 0.016; (concentration: 6mM) 0.974 ± 0.042; (concentration: 8mM) 0.994 ± 0.031; (concentration: 10mM) 0.934 ± 0.051.
Turning to LARS (UniProt Q9P2J5), the NP40-soluble protein abundance (concentration: 1mM) came to 0.977 ± 0.072; the NP40-soluble protein abundance (concentration: 2mM) amounted to 0.881 ± 0.17; the NP40-soluble protein abundance (concentration: 4mM) came out at 0.925 ± 0.11; the NP40-soluble protein abundance (concentration: 6mM) came to 0.912 ± 0.13; the NP40-soluble protein abundance (concentration: 8mM) is 0.929 ± 0.14; the NP40-soluble protein abundance (concentration: 10mM) came out at 0.898 ± 0.19.
As for RCC2 (UniProt Q9P258), the NP40-soluble protein abundance is, setting by setting: (concentration: 1mM) 0.973 ± 0.041; (concentration: 2mM) 0.902 ± 0.065; (concentration: 4mM) 0.945 ± 0.063; (concentration: 6mM) 1.01 ± 0.023; (concentration: 8mM) 1.07 ± 0.015; (concentration: 10mM) 1.038 ± 0.0087.
As to EXOSC3 (UniProt Q9NQT5), the NP40-soluble protein abundance reads like this: (concentration: 1mM) 1.07 ± 0.011; (concentration: 2mM) 1.062 ± 0.0032; (concentration: 4mM) 1.11 ± 0.053; (concentration: 6mM) 1.15 ± 0.056; (concentration: 8mM) 1.15 ± 0.085; (concentration: 10mM) 1.2 ± 0.16.
For TBC1D22B (UniProt Q9NU19), the NP40-soluble protein abundance was 0.99 ± 0.013 (concentration: 1mM); 1.01 ± 0.027 (concentration: 2mM); 1.01 ± 0.033 (concentration: 4mM); 1 ± 0.026 (concentration: 6mM); 1 ± 0.014 (concentration: 8mM); 1.01 ± 0.029 (concentration: 10mM).
Turning to UniProt Q9NV88 and related entries, the NP40-soluble protein abundance is 1.007 ± 0.0074 (concentration: 1mM); 0.965 ± 0.082 (concentration: 2mM); 1.01 ± 0.036 (concentration: 4mM); 0.991 ± 0.044 (concentration: 6mM); 1.02 ± 0.069 (concentration: 8mM); 1.01 ± 0.081 (concentration: 10mM).
For the target MBD2 (UniProt Q9UBB5), the NP40-soluble protein abundance worked out at 1.01 ± 0.041 (concentration: 1mM); 1.06 ± 0.043 (concentration: 2mM); 1.02 ± 0.037 (concentration: 4mM); 1.033 ± 0.0055 (concentration: 6mM); 1.04 ± 0.024 (concentration: 8mM); 1.07 ± 0.033 (concentration: 10mM).
For the target POLE3 (UniProt Q9NRF9), the NP40-soluble protein abundance turned out to be 1.07 ± 0.051 (concentration: 1mM); 1.09 ± 0.079 (concentration: 2mM); 1.03 ± 0.065 (concentration: 4mM); 0.972 ± 0.036 (concentration: 6mM); 0.961 ± 0.039 (concentration: 8mM); 0.954 ± 0.015 (concentration: 10mM).
Regarding UniProt Q9NVM9, the NP40-soluble protein abundance (concentration: 1mM) was found to be 1.03 ± 0.027; the NP40-soluble protein abundance (concentration: 2mM) was 1.02 ± 0.04; the NP40-soluble protein abundance (concentration: 4mM) came to 1.05 ± 0.033; the NP40-soluble protein abundance (concentration: 6mM) turned out to be 1.02 ± 0.069; the NP40-soluble protein abundance (concentration: 8mM) stood at 1.03 ± 0.075; the NP40-soluble protein abundance (concentration: 10mM) is 1.03 ± 0.063.
